Numbering of substitutions follows the chain as printed. In names and notes the source's numbering stands. Results are given in words; binding and its absence hold for the method and conditions named. Sequences can lack the tags named with a protein. One block for each binder: values may come before it.
Molecular target: human ISG15 (V74D) (human) (UniProt P05161)
Experiment: SEC; VHH and ISG15 mixed at the indicated molar ratios (1:2, 1:1 or 1:1:1) at 20 μM in 500 μl TBS, 20 min at room temperature; Superdex 75 10/300, fractions on SDS-PAGE; both purified

The chains behind the UniProt entries cited, without tags or fusion partners. Where a name states a change or a piece, a line headed by the entry shows the natural chain unless it says otherwise.
UniProt P05161: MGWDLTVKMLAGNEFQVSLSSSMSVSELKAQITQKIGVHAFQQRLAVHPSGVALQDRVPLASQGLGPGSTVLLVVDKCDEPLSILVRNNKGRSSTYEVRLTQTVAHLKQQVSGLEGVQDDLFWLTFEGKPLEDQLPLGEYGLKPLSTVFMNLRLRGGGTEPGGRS

binding: no binding (tested: 20 μM)
B1: VHH_(ISG15-B)-HA-His (VHH)
VHH: QVQLVETGGGLVEPGGSLRLSCTVSGINFSSQFMAWFRQGPGKQREWVAIDAGEENVGYLDLVEGRFTISRDTARNTLYLQMNSLKPEDTAVYYCNIFPVLPDSRWGQGTQVTVSS

binding: no binding (tested: 20 μM)
B2: VHH_(ISG15-B) (F98D) (VHH)
VHH: B1 VHH with F98D

From article PMC12406269
